Measurements taken from PubChem BioAssay AID248 (DTP/NCI, 2004).
The list shows only some results of the screen, not a fair sample: it gathers tests that were run many times, whatever their T/C, doses with no T/C, and many T/C values between a quarter and a half above the control. Other doses and runs of a compound stand elsewhere. T/C gives the treated animals as a percentage of the vehicle group. Some entries give survivors of the animals treated and no T/C: the source holds a T/C of zero for them, seemingly a mark for toxic or unscored doses. Some survivor counts are full or nearly so, which does not show that the dose was tolerated: the source hardly ever lists a survival T/C far under the control, and the zero likely stands for such cases as well. Survivors were counted at the toxicity check, usually on the fifth day, unless a day is given; later deaths do not show. Schedules are NCI's codes, read here as Q, the interval in days (D) or hours (H), X, the number of doses. Some doses were run more than once; the results are listed from low to high. Some schedule codes hold Z or #, which are not explained here. Some molecules as drawn cover several salts, stereoisomers or complexes of the source; a dose is that of the sample tested. For survival time, the PubChem record calls one and a half times the control and up active, and a quarter to a half above the control has no call in these data; cut-offs in other NCI protocols can differ. Some T/C values are followed by the survivors on the day toxicity was checked, most often the fifth; where none is given, no animal had died by that day.

System: L1210 leukemia ip in BDF1 mice, survival T/C
Assay: NCI In Vivo Anticancer Drug Screen. Data for tumor model L1210 Leukemia (intraperitoneal) in B6D2F1 (BDF1) mice
Conditions: T/C endpoint: mean survival time, higher T/C = longer survival
[1] = dose: 50.0 mg/kg/injection, schedule: Q01DX009 (ip), vehicle: Klucel (hydroxypropylcellulose) (HPC)
[2] = dose: 100.0 mg/kg/injection, schedule: Q01DX009 (ip), vehicle: Klucel (hydroxypropylcellulose) (HPC)
[3] = dose: 100.0 mg/kg/injection, schedule: Q04DX002 (ip), vehicle: Klucel (hydroxypropylcellulose) (HPC)
[4] = dose: 200.0 mg/kg/injection, schedule: Q01DX009 (ip), vehicle: Klucel (hydroxypropylcellulose) (HPC)
[5] = dose: 400.0 mg/kg/injection, schedule: Q01DX009 (ip), vehicle: Klucel (hydroxypropylcellulose) (HPC)
[6] = dose: 400.0 mg/kg/injection, schedule: Q04DX002 (ip), vehicle: Klucel (hydroxypropylcellulose) (HPC)
[7] = dose: 100.0 mg/kg/injection, schedule: Q01DX009 (ip), vehicle: saline
[8] = dose: 200.0 mg/kg/injection, schedule: Q01DX009 (ip), vehicle: saline
[9] = dose: 400.0 mg/kg/injection, schedule: Q01DX009 (ip), vehicle: saline
[10] = dose: 100.0 mg/kg/injection, schedule: Q01DX001 (ip), vehicle: saline
[11] = dose: 200.0 mg/kg/injection, schedule: Q01DX001 (ip), vehicle: saline
[12] = dose: 400.0 mg/kg/injection, schedule: Q01DX001 (ip), vehicle: saline
[13] = dose: 100.0 mg/kg/injection, schedule: Q04DX002 (ip), vehicle: saline with Tween-80
[14] = dose: 200.0 mg/kg/injection, schedule: Q04DX002 (ip), vehicle: saline with Tween-80
[15] = dose: 400.0 mg/kg/injection, schedule: Q04DX002 (ip), vehicle: saline with Tween-80
[16] = dose: 100.0 mg/kg/injection, schedule: Q01DX009 (ip), vehicle: saline with Tween-80
[17] = dose: 200.0 mg/kg/injection, schedule: Q04DX003 (ip), vehicle: saline
[18] = dose: 400.0 mg/kg/injection, schedule: Q04DX003 (ip), vehicle: saline

Cc1ccc(NC(=O)COc2cc(Cl)c(Cl)cc2Cl)cc1[N+](=O)[O-]
survivor count (dose: 150.0 mg/kg/injection, schedule: Q01DX009 (ip), vehicle: Klucel (hydroxypropylcellulose) (HPC)): 6 of 6
survivor count (dose: 300.0 mg/kg/injection, schedule: Q01DX009 (ip), vehicle: Klucel (hydroxypropylcellulose) (HPC)): 2 of 6

CCCNC(=O)Sc1ccc(Cl)cc1
survivor count [1]: 3 of 6
survivor count [2]: 0 of 3
survivor count [3]: 6 of 6
survivor count [4]: 0 of 3
survivor count [5]: 0 of 3
survivor count [6]: 0 of 6 and 1 of 3

O=S1CCOCC1.O=S1CCOCC1.O=S1CCOCC1.O=S1CCOCC1.O=S1CCOCC1.O=S1CCOCC1.[Hg+2].[O-][Cl+3]([O-])([O-])O
survivor count (dose: 12.0 mg/kg/injection, schedule: Q01DX009 (ip), vehicle: Klucel (hydroxypropylcellulose) (HPC)): 5 of 6
survivor count (dose: 25.0 mg/kg/injection, schedule: Q01DX009 (ip), vehicle: Klucel (hydroxypropylcellulose) (HPC)): 3 of 6
survivor count [1]: 0 of 6
survivor count [7]: 0 of 6
survivor count [8]: 0 of 6
survivor count [9]: 0 of 6

C[N+](C)(CCCC[N+](C)(C)Cc1ccccc1)Cc1ccccc1
survivor count [10]: 0 of 4
survivor count [11]: 0 of 4
survivor count [12]: 0 of 4

Cc1cc(=O)c2cccc(C)c2[nH]1
survivor count [5]: 1 of 6

CCCCOC(=N)N(CCCC)CC(C)(C)[N+](=O)[O-]
survivor count (dose: 66.0 mg/kg/injection, schedule: Q01DX Z (ip), vehicle: methylcellulose (MC)): 2 of 6

C=C1C(=O)OCC1(C(=O)OCC)C(=O)OCC
survivor count (dose: 40.0 mg/kg/injection, schedule: Q01DX009 (ip), vehicle: saline): 1 of 6

O=NN(CCCl)C(=O)NC12CC3CC(CC(C3)C1)C2
T/C (dose: 16.0 mg/kg/injection, schedule: Q01DX001 (ip), vehicle: carboxymethylcellulose (CMC)): 139 % of control
T/C (dose: 31.0 mg/kg/injection, schedule: Q01DX001 (ip), vehicle: carboxymethylcellulose (CMC)): 148 % of control
T/C (dose: 250.0 mg/kg/injection, schedule: Q01DX001 (ip), vehicle: carboxymethylcellulose (CMC)): 133 % of control [5 of 6 alive]
survivor count (dose: 375.0 mg/kg/injection, schedule: Q01DX001 (ip), vehicle: carboxymethylcellulose (CMC)): 6 of 6
survivor count (dose: 500.0 mg/kg/injection, schedule: Q01DX001 (ip), vehicle: carboxymethylcellulose (CMC)): 4 of 6

CCN(CC)CCOCCOC(=O)C(CC)(CC)c1cccc2ccccc12
survivor count [13]: 1 of 3
survivor count [14]: 0 of 3
survivor count [15]: 0 of 3

CNC(=O)NNC(=O)c1ccc(Cl)cc1
survivor count [16]: 3 of 6

COC(=O)Nc1cc2c3c(c1)CCCN3CCC2
survivor count (dose: 200.0 mg/kg/injection, schedule: Q01DX009 (ip), vehicle: saline with Tween-80): 6 of 6

O=C(O)C(C(=O)c1cccc([N+](=O)[O-])c1)C(=O)c1cccc([N+](=O)[O-])c1
survivor count (dose: 100.0 mg/kg/injection, schedule: Q01DX001 (ip), vehicle: carboxymethylcellulose (CMC)): 4 of 4

O=S1(=O)CC(Br)C1
survivor count [2]: 2 of 3
survivor count [3]: 0 of 3
survivor count (dose: 200.0 mg/kg/injection, schedule: Q04DX002 (ip), vehicle: Klucel (hydroxypropylcellulose) (HPC)): 0 of 3
survivor count [6]: 0 of 3

C=CCC(N)Cc1ccccc1 (stereo not drawn)
survivor count [7]: 1 of 6
survivor count [17]: 1 of 4
survivor count [18]: 0 of 4

CN(C)CC/C=C1\c2ccccc2CN(C)c2ccccc21
survivor count (dose: 50.0 mg/kg/injection, schedule: Q01DX009 (ip), vehicle: saline with Tween-80): 3 of 5
survivor count [16]: 1 of 6
survivor count [8]: 0 of 6
survivor count (dose: 200.0 mg/kg/injection, schedule: Q04DX003 (ip), vehicle: saline with Tween-80): 1 of 4
survivor count [17]: 2 of 4
survivor count [9]: 0 of 6
survivor count (dose: 400.0 mg/kg/injection, schedule: Q04DX003 (ip), vehicle: saline with Tween-80): 0 of 4
survivor count [18]: 0 of 4

CCCC[S][Pb]([CH2]C)([CH2]C)[CH2]C
survivor count (dose: 12.5 mg/kg/injection, schedule: Q01DX009 (sc), vehicle: olive oil, sesame oil, peanut oil): 0 of 3
survivor count (dose: 25.0 mg/kg/injection, schedule: Q01DX009 (sc), vehicle: olive oil, sesame oil, peanut oil): 0 of 3
survivor count (dose: 50.0 mg/kg/injection, schedule: Q04DX002 (ip), vehicle: saline with Tween-80): 1 of 3
survivor count [13]: 0 of 3
survivor count [14]: 0 of 3
survivor count [15]: 0 of 3

O=C(O)CCSc1nc2ccccc2s1
survivor count (dose: 100.0 mg/kg/injection, schedule: Q04DX003 (ip), vehicle: Klucel (hydroxypropylcellulose) (HPC)): 6 of 6
survivor count (dose: 200.0 mg/kg/injection, schedule: Q04DX003 (ip), vehicle: Klucel (hydroxypropylcellulose) (HPC)): 6 of 6

CCCC(CCN1CCCC1)(CNC(=O)CN(CC)CC)c1cccc2ccccc12 (stereo not drawn)
survivor count [7]: 3 of 5
survivor count [8]: 3 of 6
survivor count [9]: 0 of 6

O=C(Nc1ccc([N+](=O)[O-])cc1)Nc1ccc([N+](=O)[O-])cc1 (tested in a mixture with another compound)
survivor count [7]: 6 of 6

CC(C)=NC(=O)NO.[Cl][Ni][Cl]
survivor count (dose: 150.0 mg/kg/injection, schedule: Q01DX001 (ip), vehicle: saline): 0 of 6
survivor count (dose: 300.0 mg/kg/injection, schedule: Q01DX001 (ip), vehicle: saline): 0 of 6

Nc1ccc(C(=O)N/N=C/c2ccccc2[N+](=O)[O-])cc1
survivor count (dose: 50.0 mg/kg/injection, schedule: Q01DX009 (ip), vehicle: other): 5 of 5
survivor count (dose: 100.0 mg/kg/injection, schedule: Q01DX009 (ip), vehicle: other): 5 of 5
survivor count (dose: 200.0 mg/kg/injection, schedule: Q01DX009 (ip), vehicle: other): 4 of 5

O=C(O)/C=C/[P+](c1ccccc1)(c1ccccc1)c1ccccc1
survivor count (dose: 40.0 mg/kg/injection, schedule: Q01DX001 (ip), vehicle: saline): 0 of 4
survivor count (dose: 80.0 mg/kg/injection, schedule: Q01DX001 (ip), vehicle: saline): 0 of 4
survivor count [10]: 0 of 4
survivor count [11]: 0 of 4
survivor count [12]: 0 of 4

O=C(CCl)Nc1cccc(S(=O)(=O)F)c1
survivor count (dose: 200.0 mg/kg/injection, schedule: Q04DX003 (ip), vehicle: carboxymethylcellulose (CMC)): 6 of 6
survivor count (dose: 400.0 mg/kg/injection, schedule: Q04DX003 (ip), vehicle: carboxymethylcellulose (CMC)): 1 of 6

O=C(O)c1ccc(C(=O)O)c(O)c1O
survivor count [18]: 2 of 6

C[C@]12CC[C@H]3[C@@H](CC[C@]4(O)C[C@@H](O)CC[C@]34/C=N/O)[C@@]1(O)CC[C@@H]2C1=COC(=O)C1
survivor count (dose: 15.0 mg/kg/injection, schedule: Q01DX009 (ip), vehicle: carboxymethylcellulose (CMC)): 6 of 6

COc1cc([N+](=O)[O-])ccc1NC(=O)Oc1ccccc1C(N)=O
survivor count [2]: 6 of 6
survivor count [4]: 5 of 6
survivor count [5]: 0 of 6

[O]=[V]([OH])([OH])[OH]
survivor count [10]: 1 of 4
survivor count (dose: 128.0 mg/kg/injection, schedule: Q01DX015 (ip), vehicle: saline): 0 of 6
survivor count (dose: 256.0 mg/kg/injection, schedule: Q01DX015 (ip), vehicle: saline): 0 of 6
